Our source for the binding values is paper PMC7563477, “N-Terminal Segment of TvCyP2 Cyclophilin from Trichomonas vaginalis Is Involved in Self-Association, Membrane Interaction, and Subcellular Localization” (Biomolecules, 2020).

Protein sequences, listed by entry. Tags and fused reporters are not part of them.
UniProt A2DLL4: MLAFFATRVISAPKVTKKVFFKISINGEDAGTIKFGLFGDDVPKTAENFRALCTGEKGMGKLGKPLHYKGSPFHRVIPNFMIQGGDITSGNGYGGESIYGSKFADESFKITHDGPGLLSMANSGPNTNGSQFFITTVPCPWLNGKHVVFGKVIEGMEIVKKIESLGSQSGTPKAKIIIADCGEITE
UniProt A2DT06: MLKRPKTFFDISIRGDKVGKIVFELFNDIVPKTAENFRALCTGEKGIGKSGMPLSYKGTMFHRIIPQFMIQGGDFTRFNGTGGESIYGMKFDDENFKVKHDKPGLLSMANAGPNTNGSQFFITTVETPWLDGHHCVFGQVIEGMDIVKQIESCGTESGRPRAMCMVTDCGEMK

No constants are given. Whether binding was seen depends on the method and setting. In cells and extracts the contact can be indirect. Some results given as binding are weak or reduced against the parent protein; the word gives no strength.

In the assay the target is HA-TvCyP2 (hemagglutinin-tagged TvCyP2 overexpressed in T. vaginalis) (Trichomonas vaginalis) (UniProt A2DLL4). Nature of the assay: co-IP; lysates of transgenic T. vaginalis T1 cells (1% Triton X-100 in PBS, diluted 5-fold) on anti-HA agarose beads, 4 °C overnight; washed with PBS with 0.1% Triton X-100; Western blot; non-transgenic parasites as control. (In general: Immunoblotting shows a protein as a band on a membrane.)

“TvCyP1, endogenous in T. vaginalis (from UniProt A2DT06 1-173) (enzyme)”: the binding result was “binds”.
